Results taken from publication PMC4561423.

Chains of the proteins cited; added tags and fusions are not shown. Lines headed by an entry give the natural chain unless they say otherwise; changes in a name come on top.
UniProt P70452: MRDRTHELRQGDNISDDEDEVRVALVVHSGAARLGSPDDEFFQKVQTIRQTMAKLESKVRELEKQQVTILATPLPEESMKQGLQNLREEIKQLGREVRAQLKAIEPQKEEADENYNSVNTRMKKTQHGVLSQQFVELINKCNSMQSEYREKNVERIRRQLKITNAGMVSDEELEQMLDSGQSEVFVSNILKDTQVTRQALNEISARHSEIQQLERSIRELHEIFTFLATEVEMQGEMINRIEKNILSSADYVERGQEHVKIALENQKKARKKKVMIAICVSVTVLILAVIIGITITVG

Target: GFP-S-tagged Stx4Δ33-153 (Syntaxin domain deletion) (mouse) (UniProt P70452)
Assay: pull-down; 293T cells co-transfected with Cdo and GFP-S-tagged Stx4 (full length or deletion mutants); cell extracts incubated with anti-S (S-agarose) beads; blot with Cdo or GFP antibodies

B1: Cdo (cell adhesion molecule-related, down-regulated by oncogenes), full length, expressed in 293T cells (receptor, UniProt O35158 25-1256)
chain: DLATYFISEPLSAVQKLGRPVVLHCSAKPVTARISWLHNGKRLDRNTEQIKIHRGTLTILSLNPSLSGCYQCVANNSVGAVVSGPATVSADALADFDSSTMHVITAEKKNTGFIGCRVPESNPKAEVRYKIRGKWLMYSTGNYIILPSGNLQILNVSSKDKGSYKCAAYNPVTSELKVEPAGRKLLVSRPSSDGFHILHPALSQALAVLPHSPVTLECVVSGVPASQVYWLKDGQDCLSGSNWRRLYSHLATASIDPADSGNYSCVVGNNSSGDVKHVTYTVNVLEHASISKGLHDQKVSLGATVRFTCEVHGNPAPNRTWFHNAQPIRPSSRHLTEGSVLKITGVIMEDSGLYQCMADNGIGFMQSTGRLQIEQDSGQRPVIVTAPANVEVTDGDFVTLSCNATGEPVPVIHWYGRHGLITSHPSQVLRSKSRKSHLFRPGDLDPEPVYLIMSQAGSSSLSIQAVTREHAGKYTCEAVNKHGSTQSEAFLTVVPFETNTKAEPVTPSEASQNDERDPRDGSESGLLNLFPVKVHSGGVELPAEKNASVPDAPNILSPPQTHMPDTYTLVWRTGRDGGMPINAYFVKYRKLDDGSGAVGSWHTVRVPGSESELHLTELEPSSLYEVLMVARSAVGEGQPAMLTFRTSKEKMASSKNTQASFPPVGIPKRPVTSEASNSNFGVVLTDSSRHSGVPEAPDRPTISMASETSVYVTWIPRANGGSPITAFKVEYKRMKSSDWLVAAEDIPPSKLSVEVRSLEPGSIYKFRVIVINHYGESFRSSASRPYQVAGFPNRFSNRPITGPHIAYTEAVSDTQIMLKWTYIPSSNNNTPIQGFYIYYRPTDSDNDSDYKRDVVEGSKQWHTIGHLQPETSYDIKMQCFNEGGESEFSNVMICETKVKRVPGASEYPMKELSTPPSSSGNGGNVGPATSPARSSDMLYLIVGCVLGVMVLILLVFIALCLWKSRQQSAIQKYDPPGYLYQGSEINGQMVEYTTLSGTARINGSVHGGFLSKGSLSNGCSHLHHKGPNGVNGILNGTINGGLYSAHTSSLTRTCVEFEHPHHLVNGGAVYTAVPQMDPLECINCRNCRNNNRCFTKTNSPLPVVPVVASYPQDGLEMKPLGVMKFPVCPVSTVPDGGQIPEECLKDSVAPAPTQRTCRQDNTSDINSDSTEDTAEFNRGDSSGHSEAEDKVFSWSPLILSPVLEDCSEKTAWSPPGPPLDGLSVVLQQAQET
For B1, the binding was “binds”.

Results are given in words; binding and its absence hold for the method and conditions named. Binding seen in cells or lysates may run through a third protein. A result given as binding can be weak or reduced; the word gives no strength.
